Source: the supplement of paper PMC9135407
Values joined by “and” are separate entries in the source; they are usually repeats but may differ in a detail not shown here. Equal values may be shown once. Where a name gives a salt, the structure may show the parent alone. ± gives the standard deviation of the averaged measurements. The list shows a part of the results. Plates or batches differ in their baseline, so values are only roughly comparable.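 Culture-activated primary human stellate myofibroblasts, where regained lipid droplets signal inactivation. Value: share of Hoechst-counted cells above a per-plate Bodipy cutoff, in duplicate wells, with DMSO negative and nortriptyline positive controls on each plate. Hits: a control-normalized score above the plate's top-tenth-percentile nortriptyline wells, or one of a plate's three best wells. Final well concentrations are not given.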

Tested on: primary human hepatic stellate cells (donor 1)
Experiment: percent Bodipy-positive cells; higher = more lipid droplet accumulation
Details: 48 h
[1] = library stock concentration: 3.33 mM
[2] = library stock concentration: 10 mM
[3] = library stock concentration: 400 uM
[4] = library stock concentration: 2 mM
[5] = library stock concentration: 1 mM
[6] = library stock concentration: 80 uM

For COc1c(N2C[C@@H]3CCCN[C@@H]3C2)c(F)cc2c(=O)c(C(=O)O)cn(C3CC3)c12 [Moxifloxacin HCl], the “percent Bodipy-positive cells” value [1] was 12.8 ± 12% and the “percent Bodipy-positive cells” value [2] was 13.6 ± 3.9%.
In the case of COc1c(N2C[C@@H]3CCCN[C@@H]3C2)c(F)cc2c(=O)c(C(=O)O)cn(C3CC3)c12, the “percent Bodipy-positive cells” value [2] is reported as 9.28 ± 0.52%.
With COc1c(N2C[C@@H]3CCCN[C@@H]3C2)c(F)cc2c(=O)c(C(=O)O)cn(C3CC3)c12 [Moxifloxacin hydrochloride] the “percent Bodipy-positive cells” value [2] was 51.3 ± 13%.
COc1ccc(C(=O)c2ccccc2)c(O)c1 [Oxybenzone] was tested, and the “percent Bodipy-positive cells” value was 9.79 ± 3%, the “percent Bodipy-positive cells” value (library stock concentration: 8.8 mM) was 4.59 ± 0.7% and the “percent Bodipy-positive cells” value [2] was 16.8 ± 1.2%.
With CCCCC/C=C\C\C=C/C=C/C=C/[C@@H](SC[C@H](N)C(=O)NCC(=O)O)[C@@H](O)CCCC(=O)O [Leukotriene D4] the “percent Bodipy-positive cells” value (library stock concentration: 100 uM) was 6.67 ± 5.3%.
Cl.Cl.O=S(=O)(NCCNC/C=C/c1ccc(Br)cc1)c1cccc2cnccc12 [H 89 dihydrochloride] was tested, and the “percent Bodipy-positive cells” value [2] was 77.5 ± 2.8%.
With Nc1nonc1C(=Nc1ccc(F)c(Cl)c1)NO the “percent Bodipy-positive cells” value [1] was 32.88 ± 0.038% and the “percent Bodipy-positive cells” value [2] was 37 ± 1.2%.
In the case of CCN(CC)CCOc1ccc2c(c1)C(=O)c1cc(OCCN(CC)CC)ccc1-2 [Tilorone], the “percent Bodipy-positive cells” value (library stock concentration: 4.9 mM) is reported as 2.07 ± 0.58%.
For Cc1ccccc1-c1cccc(N2CCC(N3CCN(C)C(C)C3)CC2)c1 (configuration not stated), the “percent Bodipy-positive cells” value [2] was 96.34 ± 0.3%.
In the case of Oc1ccc(Cn2cc[nH]c2=S)cc1 [1-(4-Hydroxybenzyl)imidazole-2-thiol], the “percent Bodipy-positive cells” value [2] is reported as 38.3 ± 2.1%.
For NCCCCCNCC12CC3CC(CC(C3)C1)C2 [IEM 1754 dihydrobroMide], the “percent Bodipy-positive cells” value [1] was 22.7 ± 0.91% and the “percent Bodipy-positive cells” value [2] was 63.7 ± 19%.
In the case of O=C1CC(=O)c2c(Cl)c(Cl)c(Cl)c(Cl)c21, the “percent Bodipy-positive cells” value [1] is reported as 21.76 ± 0.028% and the “percent Bodipy-positive cells” value [2] is reported as 49.9 ± 11%.
In the case of COc1ccccc1N1CCN(CCN(C(=O)c2ccc(F)cc2)c2ccccn2)CC1 [p-MPPF dihydrochloride], the “percent Bodipy-positive cells” value [2] is reported as 41.9 ± 8.5%.
For c1ccc(-c2ccccn2)nc1 [2,2'-Bipyridyl], the “percent Bodipy-positive cells” value [2] was 58.9 ± 4%.
With O=C(O)c1ccc2c(c1)nc(Nc1cccc(Cl)c1)c1ccncc12 the “percent Bodipy-positive cells” value [3] was 15.9 ± 2%, the “percent Bodipy-positive cells” value [4] was 12.8 ± 0.41% and the “percent Bodipy-positive cells” value [2] was 28.2 ± 2%.
In the case of O=C(O)c1ccc2c(c1)nc(Nc1cccc(Cl)c1)c1ccncc12 [CX-4945 (Silmitasertib)], the “percent Bodipy-positive cells” value [1] is reported as 6.05 ± 0.83% and the “percent Bodipy-positive cells” value [2] is reported as 13.5 ± 3.3%.
In the case of CC1(C)O[C@@H]2C[C@H]3[C@@H]4CCC5=CC(=O)C=C[C@]5(C)[C@H]4[C@@H](O)C[C@]3(C)[C@]2(C(=O)CO)O1 [Desonide], the “percent Bodipy-positive cells” value [1] is reported as 6.29 ± 1.7% and the “percent Bodipy-positive cells” value [2] is reported as 7.97 ± 0.081%.
For CC1(C)O[C@@H]2C[C@H]3[C@@H]4CCC5=CC(=O)C=C[C@]5(C)[C@H]4[C@@H](O)C[C@]3(C)[C@]2(C(=O)CO)O1, the “percent Bodipy-positive cells” value [2] was 38.3 ± 5%.
In the case of CCNC(=O)CCC/C=C\C[C@@H]1[C@@H](/C=C/[C@@H](O)CCc2ccccc2)[C@H](O)C[C@@H]1O [Bimatoprost], the “percent Bodipy-positive cells” value [1] is reported as 18.4 ± 12% and the “percent Bodipy-positive cells” value [2] is reported as 16 ± 4.4%.
COC(=O)C1=C(C)NC(C)=C(C(=O)OC2CCCN(Cc3ccccc3)C2)C1c1cccc([N+](=O)[O-])c1 (configuration not stated) [Benidipine HCl] was tested, and the “percent Bodipy-positive cells” value [1] was 13 ± 2.6% and the “percent Bodipy-positive cells” value [2] was 64.5 ± 18%.
In the case of COC(=O)C1=C(C)NC(C)=C(C(=O)OC2CCCN(Cc3ccccc3)C2)C1c1cccc([N+](=O)[O-])c1 (configuration not stated), the “percent Bodipy-positive cells” value [2] is reported as 27.7 ± 11%.
In the case of CCCCCC(O)C=CC1C=CC(=O)C1CCCCCCC(=O)O (configuration not stated) [8-iso Prostaglandin A1], the “percent Bodipy-positive cells” value [5] is reported as 13.1 ± 1.6%.
For CCCCCC(O)C=CC1C=CC(=O)C1CCCCCCC(=O)O (stereo not drawn) [15-epi Prostaglandin A1], the “percent Bodipy-positive cells” value [5] was 9.24 ± 6.4%.
Cc1ccc(NC(=O)c2cccc(N(C)C)c2)cc1NC(=O)c1ccc(O)cc1 was tested, and the “percent Bodipy-positive cells” value [2] was 8.48 ± 0.69%.
With O=C1NCCc2[nH]c(-c3ccncc3)cc21 the “percent Bodipy-positive cells” value [6] was 12.4 ± 3%, the “percent Bodipy-positive cells” value [3] was 21.8 ± 4.8% and the “percent Bodipy-positive cells” value [4] was 30.5 ± 6.3%. For the same compound, the “percent Bodipy-positive cells” value [1] was 46.8 ± 22% and the “percent Bodipy-positive cells” value [2] was 38.3 ± 7.2%.
With C[C@]12C[C@H](O)[C@H]3[C@@H](CCC4=CC(=O)CC[C@@]43C)[C@@H]1CC[C@@H]2C(=O)CO [Corticosterone] the “percent Bodipy-positive cells” value was 15.9 ± 3.7%, the “percent Bodipy-positive cells” value (library stock concentration: 5.8 mM) was 5.38 ± 1.2% and the “percent Bodipy-positive cells” value [2] was 28.8 ± 5.3%.
With C[C@]12C[C@H](O)[C@H]3[C@@H](CCC4=CC(=O)CC[C@@]43C)[C@@H]1CC[C@@H]2C(=O)CO the “percent Bodipy-positive cells” value [2] was 5.04 ± 0.19%.
For O=C(Nc1cc2cc[nH]c2cn1)c1ccccc1, the “percent Bodipy-positive cells” value [1] was 30.3 ± 6.3% and the “percent Bodipy-positive cells” value [2] was 30.6 ± 4.6%.
In the case of COc1ccc(S(=O)(=O)Nc2cccnc2Nc2ccc(O)cc2)cc1, the “percent Bodipy-positive cells” value [6] is reported as 9.31 ± 1.6%, the “percent Bodipy-positive cells” value [3] is reported as 16.9 ± 8.4% and the “percent Bodipy-positive cells” value [4] is reported as 13 ± 1.4%. For the same compound, the “percent Bodipy-positive cells” value [1] was 30.8 ± 2.9% and the “percent Bodipy-positive cells” value [2] was 58.2% and 39.2%.
With CC[C@H]1OC(=O)C[C@@H](O)[C@H](C)[C@@H](O[C@@H]2O[C@H](C)[C@@H](O[C@H]3C[C@@](C)(O)[C@@H](O)[C@H](C)O3)[C@H](N(C)C)[C@H]2O)[C@@H](CC=O)C[C@@H](C)C(=O)/C=C/C(C)=C/[C@@H]1CO[C@@H]1O[C@H](C)[C@@H](O)[C@@H](OC)[C@H]1OC [Tylosin tartrate] the “percent Bodipy-positive cells” value [2] was 25.5 ± 5.7%.
In the case of O=C(/C=C/c1ccc(O)c(O)c1)c1ccc(O)cc1O [Butein], the “percent Bodipy-positive cells” value [1] is reported as 45 ± 5.8% and the “percent Bodipy-positive cells” value [2] is reported as 57.7 ± 6.5%.
CNS(=O)(=O)c1ccc(NC(=O)c2ccccc2C(=O)O)cc1 [Phthalysulfathiazole] was tested, and the “percent Bodipy-positive cells” value (library stock concentration: 4.8 mM) was 16.3 ± 5.1%.
With O=C(CCCCCCC(=O)Nc1ccccc1)NO the “percent Bodipy-positive cells” value [2] was 94.1 ± 2.6%.
With O=C(CCCCCCC(=O)Nc1ccccc1)NO [Vorinostat (SAHA, MK0683)] the “percent Bodipy-positive cells” value [1] was 44 ± 2.1% and the “percent Bodipy-positive cells” value [2] was 61.1 ± 6.2%.
O=C(CCCCCCC(=O)Nc1ccccc1)NO [Vorinostat] was tested, and the “percent Bodipy-positive cells” value [6] was 42.8 ± 3.8%, the “percent Bodipy-positive cells” value [3] was 34.5 ± 13% and the “percent Bodipy-positive cells” value [4] was 53.3 ± 3.3%. The “percent Bodipy-positive cells” value [2] was 80.41 ± 0.1%.
With O=c1cc(-c2ccccc2)oc2cc(O)cc(O)c12 [Chrysin] the “percent Bodipy-positive cells” value was 17.6 ± 3.4%, the “percent Bodipy-positive cells” value [1] was 12.7 ± 1.5% and the “percent Bodipy-positive cells” value [2] was 26.9% and 44.9%.
COc1ccc2c(c1)c(C1=C(c3c[nH]c4ccccc34)C(=O)NC1=O)cn2CCCN(C)C was tested, and the “percent Bodipy-positive cells” value [5] was 10.6 ± 0.27%, the “percent Bodipy-positive cells” value [1] was 21.1% and 16.6% and the “percent Bodipy-positive cells” value [2] was 71.8 ± 0.33%.
With Clc1ccc2c(c1)C(N1CCNCC1)=Nc1ccccc1O2 [Amoxapine] the “percent Bodipy-positive cells” value [2] was 95.22 ± 0.79%.
With CCCCC(CC)COC(=O)C(C#N)=C(c1ccccc1)c1ccccc1 (configuration not stated) the “percent Bodipy-positive cells” value [2] was 46.88 ± 0.21%.
For Nc1c2c(nc3ccccc13)CCCC2 [Tacrine (hydrochloride)], the “percent Bodipy-positive cells” value [5] was 6.56 ± 0.4%.
Nc1c2c(nc3ccccc13)CCCC2 [9-Amino-1,2,3,4-tetrahydroacridine hydrochloride] was tested, and the “percent Bodipy-positive cells” value [2] was 65.6 ± 6.5%.
For Nc1c2c(nc3ccccc13)CCCC2 [Tacrine hydrochloride], the “percent Bodipy-positive cells” value [2] was 20 ± 8.8%.
In the case of Nc1c2c(nc3ccccc13)CCCC2, the “percent Bodipy-positive cells” value (library stock concentration: 9.7 mM) is reported as 22.4 ± 2.3%.
With CCCCCCCCCCCCCCCCOC[C@H](CO)OC(C)=O [Hexadecyl Acetyl Glycerol] the “percent Bodipy-positive cells” value [5] was 10.8 ± 2.5%.
With NC[C@H]1CC[C@H](C(=O)Oc2ccc(CCC(=O)O)cc2)CC1 the “percent Bodipy-positive cells” value [2] was 10.59 ± 0.09%.
O=c1sn(-c2cccc3ccccc23)c(=O)n1Cc1ccccc1 [Tideglusib] was tested, and the “percent Bodipy-positive cells” value [6] was 6.53 ± 0.4%, the “percent Bodipy-positive cells” value [3] was 4.69 ± 0.44% and the “percent Bodipy-positive cells” value [4] was 29.4 ± 2.2%. The “percent Bodipy-positive cells” value [2] was 51.6 ± 4.7%.
With Cc1ccc(NC2=CC(=O)c3sc(C)nc3C2=O)cc1 [Ryuvidine] the “percent Bodipy-positive cells” value [2] was 79.9 ± 2%.
